Binding signal data for one sequence are collected here from PMC5996148.

The other results are listed elsewhere or left out.

Common to all, as to assay: protein microarray (ProtoArray v5.0), streptavidin-Alexa Fluor 647
Holding throughout (details): 3'-biotin; 20 mM Tris (pH 7.5), 5 mM MgCl2, 100 mM KCl, 0.1% Tween-20, A/T-rich and random oligonucleotide blockers; temperature not stated; high values mean tight binding

The test system of assay [1] is NUDT9 (human).
The test system of assay [2] is NUMB (human).
In assay [3] the test system is NUPL1 (human).
For assay [4], the system named is NXNL1 (human).
For assay [5], the system named is Neuritin-like protein (human).
Assay [6] concerns Neurocalcin-delta (human).
Assay [7] concerns Neuronal migration protein doublecortin (human).
In assay [8] the test system is Neuroplastin (human).
The test system of assay [9] is Neutrophil cytosol factor 1 (human).
Assay [10] has as its system Non-histone chromosomal protein HMG-14 (human).

Turning to “GGTGACAGGGGTATGGGGAGGGG [G4-2 biotinylated (Ct1)]”, the binding signal is -0.371 z-score in assay [1]; -0.381 z-score in [2]; -0.378 z-score in assay [3]; -0.385 z-score in [4]; -0.357 z-score in assay [5]; -0.396 z-score in assay [6]. For the same sequence, the binding signal in [7] is 3.89 z-score; in assay [8], -0.373 z-score; in assay [9], 3.73 z-score; in assay [10], 6.03 z-score.
